The assay concerns L1210 leukemia ip in BDF1 mice, survival T/C. As to the kind of experiment: NCI In Vivo Anticancer Drug Screen. Data for tumor model L1210 Leukemia (intraperitoneal) in B6D2F1 (BDF1) mice. The settings on record: higher T/C = longer survival.
The mark [1] stands for this setting: T/C endpoint: mean survival time, dose: 200.0 mg/kg/injection, schedule: Q04DX003 (ip), vehicle: saline with Tween-80.
[2] abbreviates: T/C endpoint: mean survival time, dose: 400.0 mg/kg/injection, schedule: Q04DX003 (ip), vehicle: saline with Tween-80.
Setting [3] is: T/C endpoint: mean survival time, dose: 100.0 mg/kg/injection, schedule: Q04DX002 (ip), vehicle: Klucel (hydroxypropylcellulose) (HPC).
The mark [4] stands for this setting: T/C endpoint: mean survival time, dose: 400.0 mg/kg/injection, schedule: Q01DX009 (ip), vehicle: saline with Tween-80.

The list does not hold the whole screen: it gathers tests that were run many times, whatever their T/C, doses with no T/C, and many T/C values between a quarter and a half above the control. Other doses and runs of a compound stand elsewhere. T/C: endpoint of the treated group in % of that of the vehicle group. Some entries give survivors of the animals treated and no T/C: the source files T/C as zero there, which appears to mark a toxic dose or a test without result, not a measured value. Some doses without a T/C left all or most animals alive at the check, yet need not have been tolerated: the source hardly ever lists a survival T/C far under the control, and the zero likely stands for such cases as well. Survivors were counted at the toxicity check, usually on the fifth day, unless a day is given; later deaths do not show. Schedule codes are those of the source, taken here to give the interval after Q, in days (D) or hours (H), and the number of doses after X. Some entries hold several experiments; their values stand side by side, smallest first. Some schedules carry Z or #; the key to these is not given. For survival time, this PubChem deposit counts one and a half times the control or more as active, and values a quarter to a half above the control carry no call in these data; other NCI protocols may use other cut-offs.

As for `CN(C)N=Nc1ccc(-c2ccc(N=NN(C)C)cc2)cc1`, the T/C was 127 % of control (T/C endpoint: mean survival time, dose: 31.2 mg/kg/injection, schedule: Q01DX Z (ip), vehicle: other) and 146 % of control (T/C endpoint: mean survival time, dose: 62.5 mg/kg/injection, schedule: Q01DX Z (ip), vehicle: other). Further, the survivor count is given as 2 of 6 (T/C endpoint: mean survival time, dose: 125.0 mg/kg/injection, schedule: Q01DX Z (ip), vehicle: other) and 1 of 6 (T/C endpoint: mean survival time, dose: 250.0 mg/kg/injection, schedule: Q01DX Z (ip), vehicle: other).
In the case of `Nc1nc2ccccc2c(=O)[nH]1`, the survivor count is recorded as 2 of 6 under setting [1] and 1 of 6 under setting [2].
Take `Oc1cc(CN2CCCC2)c(O)cc1CN1CCCC1`: the survivor count (T/C endpoint: mean survival time, dose: 300.0 mg/kg/injection, schedule: Q01DX001 (ip), vehicle: carboxymethylcellulose (CMC)) is given as 0 of 6.
On to `Cc1c[n+](CC(=O)c2ccccc2)cn1CC(=O)c1ccccc1`, for which the T/C under setting [3] is given as 88, 100, 108 % of control. Besides, the survivor count under setting [3] is on record as 1 of 3; the survivor count (T/C endpoint: mean survival time, dose: 200.0 mg/kg/injection, schedule: Q04DX002 (ip), vehicle: Klucel (hydroxypropylcellulose) (HPC)) is 0 of 6 and 2 of 3; the survivor count (T/C endpoint: mean survival time, dose: 400.0 mg/kg/injection, schedule: Q04DX002 (ip), vehicle: Klucel (hydroxypropylcellulose) (HPC)) was 0 of 3 and 1 of 6.
Regarding `COC1(c2ccc([N+](=O)[O-])o2)OC1(C)C` (stereo unspecified), the survivor count under setting [4] is given as 1 of 6.
Turning to `CS(=O)(=O)OCCN(CCOS(C)(=O)=O)c1ccc(C=Nc2cccc(C(=O)O)c2)cc1`, the T/C runs as follows: (T/C endpoint: mean survival time, dose: 10.0 mg/kg/injection, schedule: Q04DX003 (ip), vehicle: Klucel (hydroxypropylcellulose) (HPC)) 129 % of control; (T/C endpoint: mean survival time, dose: 20.0 mg/kg/injection, schedule: Q04DX003 (ip), vehicle: Klucel (hydroxypropylcellulose) (HPC)) 145 % of control; (T/C endpoint: mean survival time, dose: 40.0 mg/kg/injection, schedule: Q04DX003 (ip), vehicle: Klucel (hydroxypropylcellulose) (HPC)) 131 % of control. Besides, the survivor count (T/C endpoint: mean survival time, dose: 100.0 mg/kg/injection, schedule: Q04DX003 (ip), vehicle: Klucel (hydroxypropylcellulose) (HPC)) is listed as 5 of 6; the survivor count (T/C endpoint: mean survival time, dose: 200.0 mg/kg/injection, schedule: Q04DX003 (ip), vehicle: Klucel (hydroxypropylcellulose) (HPC)) is listed as 2 of 6; the survivor count (T/C endpoint: mean survival time, dose: 400.0 mg/kg/injection, schedule: Q04DX003 (ip), vehicle: Klucel (hydroxypropylcellulose) (HPC)) was 0 of 6.
Take `CCCCNC(=O)/C(=C\c1ccccc1)NC(C)=O`: the survivor count (T/C endpoint: mean survival time, dose: 25.0 mg/kg/injection, schedule: Q01DX009 (ip), vehicle: DMSO) is 4 of 6; the survivor count (T/C endpoint: mean survival time, dose: 25.0 mg/kg/injection, schedule: Q04DX003 (ip), vehicle: DMSO) is on record as 6 of 6; the survivor count (T/C endpoint: mean survival time, dose: 50.0 mg/kg/injection, schedule: Q04DX003 (ip), vehicle: DMSO) was 1 of 6; the survivor count (T/C endpoint: mean survival time, dose: 100.0 mg/kg/injection, schedule: Q04DX003 (ip), vehicle: DMSO) is 0 of 6; the survivor count (T/C endpoint: mean survival time, dose: 200.0 mg/kg/injection, schedule: Q04DX003 (ip), vehicle: DMSO) is given as 0 of 6; the survivor count (T/C endpoint: mean survival time, dose: 400.0 mg/kg/injection, schedule: Q04DX003 (ip), vehicle: DMSO) was 0 of 6.
Consider `CCOC(=O)CNC(=O)Nc1ccc(C(=O)O)cc1`, for which the survivor count under setting [4] is recorded as 3 of 6.
As for `O=c1[nH]c2ccc([As](O)O)cc2[nH]1`, the survivor count reads like this: (T/C endpoint: mean survival time, dose: 100.0 mg/kg/injection, schedule: Q01DX009 (ip), vehicle: water) 10 of 10; (T/C endpoint: mean survival time, dose: 200.0 mg/kg/injection, schedule: Q01DX009 (ip), vehicle: water) 8 of 10; (T/C endpoint: mean survival time, dose: 400.0 mg/kg/injection, schedule: Q01DX009 (ip), vehicle: water) 2 of 10.
For the compound `C/C(=N/OC(=O)N(C)C)c1cccs1`, the survivor count reads like this: (T/C endpoint: mean survival time, dose: 80.0 mg/kg/injection, schedule: Q01DX001 (ip), vehicle: other) 0 of 4; (T/C endpoint: mean survival time, dose: 100.0 mg/kg/injection, schedule: Q01DX001 (ip), vehicle: other) 0 of 4; (T/C endpoint: mean survival time, dose: 200.0 mg/kg/injection, schedule: Q01DX001 (ip), vehicle: other) 0 of 4; (T/C endpoint: mean survival time, dose: 400.0 mg/kg/injection, schedule: Q01DX001 (ip), vehicle: other) 0 of 4.
For `CC(=O)NC(CCc1ccc(Cl)c(Cl)c1)c1cccc(O)c(=O)c1` (stereo unspecified), the survivor count runs as follows: (T/C endpoint: median survival time, dose: 200.0 mg/kg/injection, schedule: Q01DX009 (ip), vehicle: Klucel (hydroxypropylcellulose) (HPC)) 1 of 6; (T/C endpoint: median survival time, dose: 400.0 mg/kg/injection, schedule: Q01DX009 (ip), vehicle: Klucel (hydroxypropylcellulose) (HPC)) 0 of 6.
Turning to `O=C(C=C(C(F)(F)F)C(F)(F)F)c1ccccc1Cl`, the survivor count runs as follows: (T/C endpoint: mean survival time, dose: 100.0 mg/kg/injection, schedule: Q04DX003 (ip), vehicle: saline with Tween-80) 6 of 6; under setting [1], 3 of 6; under setting [2], 0 of 6.
Turning to `CCCCCCNCCC[P+](c1ccccc1)(c1ccccc1)c1ccccc1`, the survivor count runs as follows: (T/C endpoint: mean survival time, dose: 100.0 mg/kg/injection, schedule: Q04DX002 (ip), vehicle: saline) 0 of 3; (T/C endpoint: mean survival time, dose: 200.0 mg/kg/injection, schedule: Q04DX002 (ip), vehicle: saline) 0 of 3; (T/C endpoint: mean survival time, dose: 400.0 mg/kg/injection, schedule: Q04DX002 (ip), vehicle: saline) 0 of 3.
With `O=c1c(-c2ccccc2)c(-c2ccccc2)c1=O`, the survivor count (T/C endpoint: mean survival time, dose: 300.0 mg/kg/injection, schedule: Q01DX001 (ip), vehicle: saline) is 2 of 6.
Regarding `CC(=O)[O][Hg][c]1cc2c(cc1N)C(=O)c1ccccc1-2`, the survivor count (T/C endpoint: mean survival time, dose: 25.0 mg/kg/injection, schedule: Q01DX001 (ip), vehicle: carboxymethylcellulose (CMC)) is recorded as 0 of 6; the survivor count (T/C endpoint: mean survival time, dose: 50.0 mg/kg/injection, schedule: Q01DX001 (ip), vehicle: carboxymethylcellulose (CMC)) is listed as 0 of 6; the survivor count (T/C endpoint: mean survival time, dose: 100.0 mg/kg/injection, schedule: Q01DX001 (ip), vehicle: carboxymethylcellulose (CMC)) is given as 0 of 4; the survivor count (T/C endpoint: mean survival time, dose: 200.0 mg/kg/injection, schedule: Q01DX001 (ip), vehicle: carboxymethylcellulose (CMC)) is 0 of 4; the survivor count (T/C endpoint: mean survival time, dose: 400.0 mg/kg/injection, schedule: Q01DX001 (ip), vehicle: carboxymethylcellulose (CMC)) is 0 of 4.
Consider `CCCCCNC(C)C(=O)c1ccccc1` (stereo unspecified), for which the survivor count is 0 of 6 (T/C endpoint: mean survival time, dose: 100.0 mg/kg/injection, schedule: Q01DX009 (ip), vehicle: saline); 0 of 6 (T/C endpoint: mean survival time, dose: 200.0 mg/kg/injection, schedule: Q04DX003 (ip), vehicle: saline); 0 of 6 (T/C endpoint: mean survival time, dose: 400.0 mg/kg/injection, schedule: Q04DX003 (ip), vehicle: saline).
`O=C(CCCCC(=O)Nc1ccc(C2=NCCN2)cc1)Nc1ccc(C2=NCCN2)cc1`: the T/C (T/C endpoint: mean survival time, dose: 22.0 mg/kg/injection, schedule: Q01DX009 (ip), vehicle: saline) is 131 % of control; the T/C (T/C endpoint: mean survival time, dose: 45.0 mg/kg/injection, schedule: Q01DX009 (ip), vehicle: saline) is 137 % of control; the T/C (T/C endpoint: mean survival time, dose: 177.0 mg/kg/injection, schedule: Q01DX001 (ip), vehicle: saline) was 140 % of control; the T/C (T/C endpoint: mean survival time, dose: 265.0 mg/kg/injection, schedule: Q01DX001 (ip), vehicle: saline) is 125 % of control; the T/C (T/C endpoint: mean survival time, dose: 400.0 mg/kg/injection, schedule: Q01DX001 (ip), vehicle: saline) is 135 % of control; the T/C (T/C endpoint: mean survival time, dose: 600.0 mg/kg/injection, schedule: Q01DX001 (ip), vehicle: saline) was 128 % of control. The survivor count by setting is: (T/C endpoint: mean survival time, dose: 400.0 mg/kg/injection, schedule: Q01DX009 (ip), vehicle: saline) 5 of 6; (T/C endpoint: mean survival time, dose: 600.0 mg/kg/injection, schedule: Q01DX009 (ip), vehicle: saline) 2 of 6.
Take `CCCC(O)Cc1c[nH]c(=O)[nH]c1=O` (stereo unspecified): the survivor count runs as follows: (T/C endpoint: mean survival time, dose: 200.0 mg/kg/injection, schedule: Q01DX009 (ip), vehicle: saline with Tween-80) 3 of 6; under setting [2], 2 of 6.
Consider `FC(F)(F)c1ccc2c(c1)N(CCCN1CCN(CCN3CCCCC3)CC1)c1ccccc1S2`, for which the survivor count reads like this: (T/C endpoint: mean survival time, dose: 50.0 mg/kg/injection, schedule: Q01DX009 (ip), vehicle: saline) 5 of 6; (T/C endpoint: mean survival time, dose: 100.0 mg/kg/injection, schedule: Q04DX003 (ip), vehicle: saline) 1 of 6.

The values above are taken from PubChem BioAssay AID248 (DTP/NCI, 2004).
